# B1: GeneTime: Recombinant Human Epidermal Growth Factor External Solution, 2000 IU/mL; positive control (protein, UniProt P01133 23-1207, looked up)
# Pro-epidermal growth factor: PQHWSCPEGTLAGNGNSTCVGPAPFLIFSHGNSIFRIDTEGTNYEQLVVDAGVSVIMDFHYNEKRIYWVDLERQLLQRVFLNGSRQERVCNIEKNVSGMAINWINEEVIWSNQQEGIITVTDMKGNNSHILLSALKYPANVAVDPVERFIFWSSEVAGSLYRADLDGVGVKALLETSEKITAVSLDVLDKRLFWIQYNREGSNSLICSCDYDGGSVHISKHPTQHNLFAMSLFGDRIFYSTWKMKTIWIANKHTGKDMVRINLHSSFVPLGELKVVHPLAQPKAEDDTWEPEQKLCKLRKGNCSSTVCGQDLQSHLCMCAEGYALSRDRKYCEDVNECAFWNHGCTLGCKNTPGSYYCTCPVGFVLLPDGKRCHQLVSCPRNVSECSHDCVLTSEGPLCFCPEGSVLERDGKTCSGCSSPDNGGCSQLCVPLSPVSWECDCFPGYDLQLDEKSCAASGPQPFLLFANSQDIRHMHFDGTDYGTLLSQQMGMVYALDHDPVENKIYFAHTALKWIERANMDGSQRERLIEEGVDVPEGLAVDWIGRRFYWTDRGKSLIGRSDLNGKRSKIITKENISQPRGIAVHPMAKRLFWTDTGINPRIESSSLQGLGRLVIASSDLIWPSGITIDFLTDKLYWCDAKQSVIEMANLDGSKRRRLTQNDVGHPFAVAVFEDYVWFSDWAMPSVMRVNKRTGKDRVRLQGSMLKPSSLVVVHPLAKPGADPCLYQNGGCEHICKKRLGTAWCSCREGFMKASDGKTCLALDGHQLLAGGEVDLKNQVTPLDILSKTRVSEDNITESQHMLVAEIMVSDQDDCAPVGCSMYARCISEGEDATCQCLKGFAGDGKLCSDIDECEMGVPVCPPASSKCINTEGGYVCRCSEGYQGDGIHCLDIDECQLGEHSCGENASCTNTEGGYTCMCAGRLSEPGLICPDSTPPPHLREDDHHYSVRNSDSECPLSHDGYCLHDGVCMYIEALDKYACNCVVGYIGERCQYRDLKWWELRHAGHGQQQKVIVVAVCVVVLVMLLLLSLWGAHYYRTQKLLSKNPKNPYEESSRDVRSRRPADTEDGMSSCPQPWFVVIKEHQDLKNGGQPVAGEDGQAADGSMQPTSWRQEPQLCGMGTEQGCWIPVSSDKGSCPQVMERSFHMPSYGTQTLEGGVEKPHSLLSANPLWQQRALDPPHQMELTQ
# modifications: Pro-epidermal growth factor
# notes: Recombinant Human Epidermal Growth Factor External Solution, 2000 IU/mL; positive control
# System: diabetic rats
# Assay: Fasting blood glucose monitoring in STZ-diabetic rats with dorsal skin wound, topical administration
# Type: in vivo, Wistar rats
# Settings: GeneTime 0.04 mL topical twice daily, mean±S.E.M.
# Description: In this study, 50 STZ-diabetic rats were used to simulate Type 1 diabetes, with an additional 8 normal rats serving as the control group (normal blank gel control group (without STZ)). The method for modeling the STZ-diabetic rat is as follows: Male Wistar rats were weighed and then intraperitoneally injected with Streptozotocin (STZ, freshly prepared, dissolved in 0.1 M citrate buffer (pH 4.5)) at a dosage of 80 mg/kg. STZ was intraperitoneally injected twice in total, with a 5-day interval between injections. Three days after the second STZ injection, rats with fasting blood glucose levels greater than 250 mg/dl were defined as diabetic model rats. Studies on skin wound healing could be conducted from 1 to 8 weeks after the successful establishment of the diabetic rat model. • 2.
# All experimental groups were topically administered. Before administering the medication, wounds were rinsed with physiological saline and any residual moisture was absorbed with a sterile cotton swab. Then, the medication was applied. […] Efficacy assessment • 1) Blood glucose monitoring: Blood samples were obtained from all animals via tail vein sampling, and fasting blood glucose levels were measured on days 0/9/18 using a glucometer. • 2) Evaluation of wound closure:
# Experimental data were expressed as the mean±standard error of the mean (mean±S.E.M.). […]
molecule,measurement,setting,value
B1,Fasting blood glucose,Day 9,451.8 ± 11.33 mg/dL
same,Fasting blood glucose,Day 18,464.04 ± 3.71 mg/dL

# From patent US20240238263A1, “USE OF PYRIDONE DERIVATIVE CONTAINING HETEROATOM CYCLOBUTANE SUBSTITUENT” (GUANGZHOU JOYO PHARMATECH CO., LTD, priority 2021, published 2024)
